Source: PubChem BioAssay AID1508597 (Cure First, 2020)
Aim: 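Survival screen with siRNA in ovarian cancer cells derived from patients, with or without rucaparib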 (primary screen). System: human ovarian carcinoma lines grown from tumours: OCI-P5x (papillary serous) and OCI-C5x (clear cell). Knock-down reagent: siRNA pool against human genes, 1.25 pmol siRNA per well. Time to read-out: 72 h or 96 h, depending on the cell culture. Treatment: rucaparib 20 µM (about IC30) or vehicle, present until read-out. Rucaparib or vehicle: Vehicle. Cell line: OCI-P5x (serous). Read-out: 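Luminescent ATP-based viability assay read 72 or 96 h after transfection, depending on culture, given as normalised percent viability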. Reading the numbers: viability, normalised: higher = more viable cells remaining. Call rule: 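a well counts as a hit if its normalised viability is under 80 percent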. Calls: active = viability under 80%; inactive = viability 80% or more.
Shown is an unselected part of the about 2,100 reagents, under one of the conditions tested. 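Calls flag viability under 80% in either arm, not effects specific to rucaparib; the reference for percent is not stated.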 Some reagents were tested in more than one well and are listed for each. No sequences are given here. The record does not give: the 100% reference.

| Gene | technical replicate | viability, normalised (%) | Outcome |
| --- | --- | --- | --- |
| MED20 (mediator complex subunit 20) | 1 | 49 | active |
| MED20 (mediator complex subunit 20) | 2 | 63.5 | active |
| MED20 (mediator complex subunit 20) | 3 | 65.2 | active |
| L3MBTL4 (L3MBTL histone methyl-lysine binding protein 4) | 1 | 65.7 | active |
| L3MBTL4 (L3MBTL histone methyl-lysine binding protein 4) | 2 | 66.4 | active |
| L3MBTL4 (L3MBTL histone methyl-lysine binding protein 4) | 3 | 70.9 | active |
| FANCM (FA complementation group M) | 1 | 67.4 | active |
| FANCM (FA complementation group M) | 1 | 70.5 | active |
| FANCM (FA complementation group M) | 2 | 70 | active |
| FANCM (FA complementation group M) | 2 | 80.9 | inactive |
| FANCM (FA complementation group M) | 3 | 128 | inactive |
| FANCM (FA complementation group M) | 3 | 58.3 | active |
| MBTD1 (mbt domain containing 1) | 1 | 54.7 | active |
| MBTD1 (mbt domain containing 1) | 2 | 67.6 | active |
| MBTD1 (mbt domain containing 1) | 3 | 58.3 | active |
| ROCK1 (Rho associated coiled-coil containing protein kinase 1) | 1 | 100 | inactive |
| ROCK1 (Rho associated coiled-coil containing protein kinase 1) | 2 | 108 | inactive |
| ROCK1 (Rho associated coiled-coil containing protein kinase 1) | 3 | 109 | inactive |
| RNF40 (ring finger protein 40) | 1 | 45.3 | active |
| RNF40 (ring finger protein 40) | 2 | 59.6 | active |
| RNF40 (ring finger protein 40) | 3 | 42.5 | active |
| CDYL2 (chromodomain Y like 2) | 1 | 97.5 | inactive |
| CDYL2 (chromodomain Y like 2) | 2 | 109 | inactive |
| CDYL2 (chromodomain Y like 2) | 3 | 103 | inactive |
| GLI3 (GLI family zinc finger 3) | 1 | 67.7 | active |
| GLI3 (GLI family zinc finger 3) | 2 | 80 | active |
| GLI3 (GLI family zinc finger 3) | 3 | 133 | inactive |
| MAPK10 (mitogen-activated protein kinase 10) | 1 | 74 | active |
| MAPK10 (mitogen-activated protein kinase 10) | 2 | 84.8 | inactive |
| MAPK10 (mitogen-activated protein kinase 10) | 3 | 89.5 | inactive |
| BMX (BMX non-receptor tyrosine kinase) | 1 | 66.2 | active |
| BMX (BMX non-receptor tyrosine kinase) | 2 | 59.2 | active |
| BMX (BMX non-receptor tyrosine kinase) | 3 | 51.2 | active |
| DYRK2 (dual specificity tyrosine phosphorylation regulated kinase 2) | 1 | 74.4 | active |
| DYRK2 (dual specificity tyrosine phosphorylation regulated kinase 2) | 2 | 76 | active |
| DYRK2 (dual specificity tyrosine phosphorylation regulated kinase 2) | 3 | 73.3 | active |

Sorted by “viability, normalised (%)” (low to high): 8 of the entries above
| Gene | technical replicate | viability, normalised (%) | Outcome |
| --- | --- | --- | --- |
| FANCM (FA complementation group M) | 3 | 58.3 | active |
| L3MBTL4 (L3MBTL histone methyl-lysine binding protein 4) | 2 | 66.4 | active |
| FANCM (FA complementation group M) | 1 | 67.4 | active |
| FANCM (FA complementation group M) | 2 | 70 | active |
| FANCM (FA complementation group M) | 1 | 70.5 | active |
| L3MBTL4 (L3MBTL histone methyl-lysine binding protein 4) | 3 | 70.9 | active |
| FANCM (FA complementation group M) | 2 | 80.9 | inactive |
| FANCM (FA complementation group M) | 3 | 128 | inactive |

The results go on.
| Gene | technical replicate | viability, normalised (%) | Outcome |
| --- | --- | --- | --- |
| BRD7 (bromodomain containing 7) | 1 | 105 | inactive |
| BRD7 (bromodomain containing 7) | 2 | 75.8 | active |
| BRD7 (bromodomain containing 7) | 3 | 107 | inactive |
| PRKCA (protein kinase C alpha) | 1 | 52.1 | active |
| PRKCA (protein kinase C alpha) | 1 | 115 | inactive |
| PRKCA (protein kinase C alpha) | 2 | 58.2 | active |
| PRKCA (protein kinase C alpha) | 2 | 115 | inactive |
| PRKCA (protein kinase C alpha) | 3 | 158 | inactive |
| PRKCA (protein kinase C alpha) | 3 | 137 | inactive |
| PBK (PDZ binding kinase) | 1 | 67.5 | active |
| PBK (PDZ binding kinase) | 1 | 88 | inactive |
| PBK (PDZ binding kinase) | 2 | 82.1 | inactive |
| PBK (PDZ binding kinase) | 2 | 69.9 | active |
| PBK (PDZ binding kinase) | 3 | 82.1 | inactive |
| PBK (PDZ binding kinase) | 3 | 84.7 | inactive |
| AIFM2 (AIF family member 2, ferroptosis suppressor) | 1 | 76.7 | active |
| AIFM2 (AIF family member 2, ferroptosis suppressor) | 2 | 68.4 | active |
| AIFM2 (AIF family member 2, ferroptosis suppressor) | 3 | 72.7 | active |
| HDAC9 (histone deacetylase 9) | 1 | 52 | active |
| HDAC9 (histone deacetylase 9) | 2 | 67.4 | active |
| HDAC9 (histone deacetylase 9) | 3 | 52.8 | active |
